## Assay results

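A panel of P. falciparum strains inside erythrocytes is exposed to compounds for three days, then a DNA-binding dye reports the amount of parasite DNA. Each compound was titrated across a series from about 0.000037 to 29 µM. The number is the fitted AC50, the concentration giving a half-maximal change in signal; a lower value means higher potency, whether the curve shows a decrease or an increase. Calls follow the curve class and fit quality: every row here is inconclusive, covering signal-raising curves and weak, poorly fitted, partial or highest-dose-only inhibition curves.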

Values are in µM. All entries here are filed as inconclusive. Only part of the assay is shown, chiefly results filed as inconclusive. Potencies fitted to partial, single-point or poorly fitting curves are rough.

SMILES | setting | fitted potency (µM) | curve
COC(=O)[C@H]1[C@H]2C[C@@H]3c4[nH]c5cc(OC)ccc5c4CCN3C[C@H]2C[C@@H](OC(=O)c2cc(OC)c(OC)c(OC)c2)[C@@H]1OC | CP250 | 11.22 | inhibitor, single point
COC(=O)[C@H]1[C@H]2C[C@@H]3c4[nH]c5cc(OC)ccc5c4CCN3C[C@H]2C[C@@H](OC(=O)c2cc(OC)c(OC)c(OC)c2)[C@@H]1OC | CP265 | 10 | inhibitor, single point
COC(=O)[C@H]1[C@H]2C[C@@H]3c4[nH]c5cc(OC)ccc5c4CCN3C[C@H]2C[C@@H](OC(=O)c2cc(OC)c(OC)c(OC)c2)[C@@H]1OC | FAB9 | 12.59 | inhibitor, single point
COC(=O)[C@H]1[C@H]2C[C@@H]3c4[nH]c5cc(OC)ccc5c4CCN3C[C@H]2C[C@@H](OC(=O)c2cc(OC)c(OC)c(OC)c2)[C@@H]1OC | CP266 | 15.1 | inhibitor, single point
CC(=O)Oc1ccccc1C(=O)Nc1ncc([N+](=O)[O-])s1 | 3D7 | 10 | inhibitor, single point
CC(=O)Oc1ccccc1C(=O)Nc1ncc([N+](=O)[O-])s1 | GB4 | 15.1 | inhibitor, single point
CC(=O)Oc1ccccc1C(=O)Nc1ncc([N+](=O)[O-])s1 | W2 | 13.46 | inhibitor, single point
CC(=O)Oc1ccccc1C(=O)Nc1ncc([N+](=O)[O-])s1 | Dd2 | 11.22 | inhibitor, single point
CC(=O)Oc1ccccc1C(=O)Nc1ncc([N+](=O)[O-])s1 | HB3 | 19.95 | inhibitor, single point
CC(=O)Oc1ccccc1C(=O)Nc1ncc([N+](=O)[O-])s1 | CP335 | 16.94 | inhibitor, single point
CCCCCCNC(=O)n1cc(F)c(=O)[nH]c1=O | PC49 | 11.22 | inhibitor, single point
CCCCCCNC(=O)n1cc(F)c(=O)[nH]c1=O | P93_24 | 17.78 | inhibitor, single point
CCCCCCNC(=O)n1cc(F)c(=O)[nH]c1=O | CP194 | 16.94 | inhibitor, single point
CCCCCCNC(=O)n1cc(F)c(=O)[nH]c1=O | CP256 | 5.012 | inhibitor, partial curve, poor fit
CCCCCCNC(=O)n1cc(F)c(=O)[nH]c1=O | CP191 | 10 | inhibitor, single point
CCCCCCNC(=O)n1cc(F)c(=O)[nH]c1=O | CP185 | 17.78 | inhibitor, single point
CCCCCCNC(=O)n1cc(F)c(=O)[nH]c1=O | N140 | 11.22 | inhibitor, single point
CCCCCCNC(=O)n1cc(F)c(=O)[nH]c1=O | CP305 | 13.46 | inhibitor, single point
CCCCCCNC(=O)n1cc(F)c(=O)[nH]c1=O | CP260 | 11.22 | inhibitor, single point
CCCCCCNC(=O)n1cc(F)c(=O)[nH]c1=O | CP268 | 19.01 | inhibitor, single point
CCCCCCNC(=O)n1cc(F)c(=O)[nH]c1=O | CP237 | 7.08 | inhibitor, partial curve
CCCCCCNC(=O)n1cc(F)c(=O)[nH]c1=O | CP215 | 19.01 | inhibitor, single point
CCCCCCNC(=O)n1cc(F)c(=O)[nH]c1=O | AS120 | 12.59 | inhibitor, single point
CCCCCCNC(=O)n1cc(F)c(=O)[nH]c1=O | CP297 | 19.01 | inhibitor, single point
CCCCCCNC(=O)n1cc(F)c(=O)[nH]c1=O | DFO2036 | 17.78 | inhibitor, single point
CCCCCCNC(=O)n1cc(F)c(=O)[nH]c1=O | CP315 | 19.01 | inhibitor, single point
CCCCCCNC(=O)n1cc(F)c(=O)[nH]c1=O | ECU | 11.22 | inhibitor, single point

The results are deposited in PubChem (AID504749; NCATS, 2011).